Experimental data from the supplement of paper PMC10849652.
This is one part of the list. Residues, ends and D or L forms follow the SMILES beside them. *: point of attachment. Cbz = O=C(OCc1ccccc1)*

Chains of the proteins cited; added tags and fusions are not shown. Lines headed by an entry give the natural chain unless they say otherwise; changes in a name come on top.
UniProt Q5BJF6: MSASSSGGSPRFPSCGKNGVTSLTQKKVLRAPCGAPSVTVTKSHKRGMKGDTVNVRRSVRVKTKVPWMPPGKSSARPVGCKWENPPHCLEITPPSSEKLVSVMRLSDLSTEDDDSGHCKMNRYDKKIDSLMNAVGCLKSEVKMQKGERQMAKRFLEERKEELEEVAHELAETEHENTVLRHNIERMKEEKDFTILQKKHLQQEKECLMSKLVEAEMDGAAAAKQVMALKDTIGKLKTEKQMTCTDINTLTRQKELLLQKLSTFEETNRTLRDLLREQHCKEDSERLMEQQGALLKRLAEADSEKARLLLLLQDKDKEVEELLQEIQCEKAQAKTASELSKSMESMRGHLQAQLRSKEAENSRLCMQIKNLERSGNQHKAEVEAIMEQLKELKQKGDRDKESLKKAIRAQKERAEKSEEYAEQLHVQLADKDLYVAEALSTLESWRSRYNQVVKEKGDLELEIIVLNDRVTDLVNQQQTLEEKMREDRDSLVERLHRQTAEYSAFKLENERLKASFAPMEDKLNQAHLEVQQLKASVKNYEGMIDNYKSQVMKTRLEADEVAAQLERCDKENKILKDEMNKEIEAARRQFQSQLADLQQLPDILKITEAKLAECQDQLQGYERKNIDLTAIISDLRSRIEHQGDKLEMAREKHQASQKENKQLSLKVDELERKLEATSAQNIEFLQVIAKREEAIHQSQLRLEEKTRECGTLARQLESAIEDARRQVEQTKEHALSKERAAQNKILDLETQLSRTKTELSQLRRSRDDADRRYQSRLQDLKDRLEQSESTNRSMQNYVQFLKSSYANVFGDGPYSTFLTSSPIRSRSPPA
UniProt O95848: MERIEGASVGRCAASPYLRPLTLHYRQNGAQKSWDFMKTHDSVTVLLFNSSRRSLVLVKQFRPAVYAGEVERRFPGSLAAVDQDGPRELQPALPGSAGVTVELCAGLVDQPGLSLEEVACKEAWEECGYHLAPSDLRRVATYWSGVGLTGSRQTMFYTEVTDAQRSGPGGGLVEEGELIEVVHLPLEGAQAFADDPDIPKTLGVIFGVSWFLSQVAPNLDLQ
UniProt Q6ZVK8: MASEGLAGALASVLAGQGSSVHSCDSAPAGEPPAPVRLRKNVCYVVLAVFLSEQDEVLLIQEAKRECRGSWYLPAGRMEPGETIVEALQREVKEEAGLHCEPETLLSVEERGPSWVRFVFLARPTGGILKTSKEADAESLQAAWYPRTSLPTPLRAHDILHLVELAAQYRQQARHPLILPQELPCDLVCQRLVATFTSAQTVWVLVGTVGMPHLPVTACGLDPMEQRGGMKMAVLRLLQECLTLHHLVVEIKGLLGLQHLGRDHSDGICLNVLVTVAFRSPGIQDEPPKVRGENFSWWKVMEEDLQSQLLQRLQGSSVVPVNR
UniProt P53370: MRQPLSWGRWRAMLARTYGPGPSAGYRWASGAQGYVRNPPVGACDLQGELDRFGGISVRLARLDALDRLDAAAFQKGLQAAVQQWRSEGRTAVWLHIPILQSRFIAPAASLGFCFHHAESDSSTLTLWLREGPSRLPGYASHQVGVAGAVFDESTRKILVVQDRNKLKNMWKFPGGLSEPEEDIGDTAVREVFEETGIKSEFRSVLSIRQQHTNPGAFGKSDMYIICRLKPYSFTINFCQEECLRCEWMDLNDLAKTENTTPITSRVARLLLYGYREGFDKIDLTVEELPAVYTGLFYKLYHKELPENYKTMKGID
UniProt Q9BRQ3: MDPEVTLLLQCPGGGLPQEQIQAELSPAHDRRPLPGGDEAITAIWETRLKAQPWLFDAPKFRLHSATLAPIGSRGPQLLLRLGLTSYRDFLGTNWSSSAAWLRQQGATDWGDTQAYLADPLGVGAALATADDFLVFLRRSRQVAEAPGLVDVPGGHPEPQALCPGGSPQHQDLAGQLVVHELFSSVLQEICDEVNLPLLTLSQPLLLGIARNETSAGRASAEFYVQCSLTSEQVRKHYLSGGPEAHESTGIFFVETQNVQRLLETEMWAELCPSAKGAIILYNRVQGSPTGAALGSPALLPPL
UniProt Q86UD1: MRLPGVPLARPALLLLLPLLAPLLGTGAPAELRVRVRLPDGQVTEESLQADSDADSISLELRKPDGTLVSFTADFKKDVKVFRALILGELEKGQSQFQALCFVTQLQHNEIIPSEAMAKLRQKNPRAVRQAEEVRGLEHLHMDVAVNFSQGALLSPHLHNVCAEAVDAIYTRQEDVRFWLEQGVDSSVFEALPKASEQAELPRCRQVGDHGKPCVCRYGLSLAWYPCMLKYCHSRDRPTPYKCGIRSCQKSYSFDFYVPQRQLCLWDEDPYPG
UniProt Q8N573: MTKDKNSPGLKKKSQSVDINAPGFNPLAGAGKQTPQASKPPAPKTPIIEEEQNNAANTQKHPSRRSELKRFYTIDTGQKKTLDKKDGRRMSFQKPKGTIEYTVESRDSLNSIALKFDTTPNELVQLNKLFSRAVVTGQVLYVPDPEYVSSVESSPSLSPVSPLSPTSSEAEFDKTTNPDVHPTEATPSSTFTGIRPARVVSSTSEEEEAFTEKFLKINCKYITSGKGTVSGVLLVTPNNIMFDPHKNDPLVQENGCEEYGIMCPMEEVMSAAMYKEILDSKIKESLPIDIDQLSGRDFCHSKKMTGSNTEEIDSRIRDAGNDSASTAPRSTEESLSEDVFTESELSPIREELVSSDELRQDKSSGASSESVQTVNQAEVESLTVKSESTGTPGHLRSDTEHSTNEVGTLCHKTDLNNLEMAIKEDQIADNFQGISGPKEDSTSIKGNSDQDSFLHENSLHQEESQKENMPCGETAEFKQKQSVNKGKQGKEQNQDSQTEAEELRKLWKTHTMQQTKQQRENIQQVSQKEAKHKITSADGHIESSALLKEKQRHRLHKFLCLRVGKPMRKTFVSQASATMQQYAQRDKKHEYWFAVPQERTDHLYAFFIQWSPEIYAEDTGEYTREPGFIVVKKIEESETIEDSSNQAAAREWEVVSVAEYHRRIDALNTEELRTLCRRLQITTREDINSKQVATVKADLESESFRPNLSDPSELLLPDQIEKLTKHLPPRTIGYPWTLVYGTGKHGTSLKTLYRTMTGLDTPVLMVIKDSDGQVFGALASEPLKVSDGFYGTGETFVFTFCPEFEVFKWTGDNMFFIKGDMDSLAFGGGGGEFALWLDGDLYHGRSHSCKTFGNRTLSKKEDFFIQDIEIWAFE
UniProt Q8WV74: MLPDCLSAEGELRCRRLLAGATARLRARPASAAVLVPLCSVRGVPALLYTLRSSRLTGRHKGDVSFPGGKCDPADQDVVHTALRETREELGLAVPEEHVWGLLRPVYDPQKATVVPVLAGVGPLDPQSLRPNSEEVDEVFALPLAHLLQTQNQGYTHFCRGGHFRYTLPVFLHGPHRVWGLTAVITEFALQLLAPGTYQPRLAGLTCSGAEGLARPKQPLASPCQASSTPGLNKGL
UniProt Q9P0S3: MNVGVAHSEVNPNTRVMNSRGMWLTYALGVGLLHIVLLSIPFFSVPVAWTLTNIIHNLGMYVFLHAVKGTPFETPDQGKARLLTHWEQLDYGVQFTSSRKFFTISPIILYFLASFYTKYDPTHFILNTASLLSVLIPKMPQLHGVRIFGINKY
UniProt Q99935: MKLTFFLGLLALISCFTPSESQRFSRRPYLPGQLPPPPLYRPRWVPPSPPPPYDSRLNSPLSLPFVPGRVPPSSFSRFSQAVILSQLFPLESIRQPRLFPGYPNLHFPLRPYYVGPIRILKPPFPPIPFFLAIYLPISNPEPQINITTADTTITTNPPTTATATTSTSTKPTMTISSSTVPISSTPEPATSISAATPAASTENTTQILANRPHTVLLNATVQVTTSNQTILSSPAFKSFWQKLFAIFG
UniProt Q9Y5N6: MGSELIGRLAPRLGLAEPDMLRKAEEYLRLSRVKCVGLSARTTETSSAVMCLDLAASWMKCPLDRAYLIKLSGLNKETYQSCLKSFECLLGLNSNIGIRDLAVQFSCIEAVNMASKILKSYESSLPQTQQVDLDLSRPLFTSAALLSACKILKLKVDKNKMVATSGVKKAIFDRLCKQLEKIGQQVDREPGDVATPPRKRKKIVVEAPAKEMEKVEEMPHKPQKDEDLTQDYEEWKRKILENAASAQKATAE
UniProt Q9H4B0: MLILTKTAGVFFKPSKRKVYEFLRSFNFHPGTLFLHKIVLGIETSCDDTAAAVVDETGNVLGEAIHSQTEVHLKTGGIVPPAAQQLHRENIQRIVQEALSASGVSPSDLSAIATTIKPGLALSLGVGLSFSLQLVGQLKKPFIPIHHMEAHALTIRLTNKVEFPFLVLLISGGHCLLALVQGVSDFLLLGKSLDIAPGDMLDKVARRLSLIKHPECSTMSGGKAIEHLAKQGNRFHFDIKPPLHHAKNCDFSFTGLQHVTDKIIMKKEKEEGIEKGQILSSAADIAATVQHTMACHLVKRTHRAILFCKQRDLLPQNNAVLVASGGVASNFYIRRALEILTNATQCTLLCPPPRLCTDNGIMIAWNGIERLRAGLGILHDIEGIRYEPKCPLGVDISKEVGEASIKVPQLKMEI
UniProt Q9Y6K5: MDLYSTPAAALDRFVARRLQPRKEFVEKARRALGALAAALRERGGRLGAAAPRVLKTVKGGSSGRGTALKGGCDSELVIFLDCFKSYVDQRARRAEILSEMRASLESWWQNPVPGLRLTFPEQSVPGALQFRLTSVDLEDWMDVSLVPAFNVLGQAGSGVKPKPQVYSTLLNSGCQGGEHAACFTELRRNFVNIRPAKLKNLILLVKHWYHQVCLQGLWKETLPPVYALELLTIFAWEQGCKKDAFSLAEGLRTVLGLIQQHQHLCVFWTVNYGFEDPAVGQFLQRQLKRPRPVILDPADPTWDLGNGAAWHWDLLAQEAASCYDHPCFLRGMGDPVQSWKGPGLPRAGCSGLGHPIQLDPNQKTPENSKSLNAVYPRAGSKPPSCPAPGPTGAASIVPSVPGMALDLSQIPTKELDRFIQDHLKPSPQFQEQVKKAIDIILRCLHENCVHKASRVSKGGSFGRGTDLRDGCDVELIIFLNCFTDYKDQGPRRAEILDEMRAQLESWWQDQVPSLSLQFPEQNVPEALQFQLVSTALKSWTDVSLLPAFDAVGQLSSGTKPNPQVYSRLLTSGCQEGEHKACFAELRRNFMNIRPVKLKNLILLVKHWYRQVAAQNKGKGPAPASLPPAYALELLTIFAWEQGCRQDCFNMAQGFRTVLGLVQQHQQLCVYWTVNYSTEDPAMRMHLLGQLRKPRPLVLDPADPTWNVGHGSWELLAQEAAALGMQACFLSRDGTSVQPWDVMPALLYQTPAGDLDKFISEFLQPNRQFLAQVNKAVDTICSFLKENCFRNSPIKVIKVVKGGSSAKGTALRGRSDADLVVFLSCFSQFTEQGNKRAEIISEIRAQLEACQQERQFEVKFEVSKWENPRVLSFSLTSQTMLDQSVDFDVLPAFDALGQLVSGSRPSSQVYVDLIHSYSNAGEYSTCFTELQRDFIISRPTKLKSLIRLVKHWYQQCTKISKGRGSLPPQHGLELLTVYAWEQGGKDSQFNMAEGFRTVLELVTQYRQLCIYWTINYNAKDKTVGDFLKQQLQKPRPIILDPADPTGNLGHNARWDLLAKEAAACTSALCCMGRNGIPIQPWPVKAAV
UniProt P0C025: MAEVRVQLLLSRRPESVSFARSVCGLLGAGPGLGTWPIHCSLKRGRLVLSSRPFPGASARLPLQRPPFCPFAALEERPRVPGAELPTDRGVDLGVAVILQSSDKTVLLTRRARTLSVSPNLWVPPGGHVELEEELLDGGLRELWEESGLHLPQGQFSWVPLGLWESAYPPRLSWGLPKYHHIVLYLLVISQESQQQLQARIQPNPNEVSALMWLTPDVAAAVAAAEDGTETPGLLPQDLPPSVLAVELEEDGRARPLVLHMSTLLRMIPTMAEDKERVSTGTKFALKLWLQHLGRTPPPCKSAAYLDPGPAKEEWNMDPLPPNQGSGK
UniProt Q9ULJ1: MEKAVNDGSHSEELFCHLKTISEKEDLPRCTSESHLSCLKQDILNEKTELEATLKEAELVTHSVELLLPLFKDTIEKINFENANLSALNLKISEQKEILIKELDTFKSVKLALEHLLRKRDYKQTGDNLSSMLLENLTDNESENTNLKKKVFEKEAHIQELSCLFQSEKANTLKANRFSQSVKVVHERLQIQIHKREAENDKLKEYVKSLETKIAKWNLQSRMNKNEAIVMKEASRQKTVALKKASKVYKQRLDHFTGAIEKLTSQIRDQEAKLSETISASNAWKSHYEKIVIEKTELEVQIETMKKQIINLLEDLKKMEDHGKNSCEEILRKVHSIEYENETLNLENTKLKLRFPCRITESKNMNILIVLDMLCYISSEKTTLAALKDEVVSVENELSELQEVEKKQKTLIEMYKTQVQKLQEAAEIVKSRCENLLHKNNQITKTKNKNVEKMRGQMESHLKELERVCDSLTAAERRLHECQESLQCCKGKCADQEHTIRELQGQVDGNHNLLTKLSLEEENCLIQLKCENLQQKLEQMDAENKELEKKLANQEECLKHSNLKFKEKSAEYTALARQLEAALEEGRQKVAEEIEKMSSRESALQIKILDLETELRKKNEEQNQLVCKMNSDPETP

Legend:
Experiment in all cases: log2 fold change, soluble protein after heating vs DMSO (PISA); higher = thermal stabilisation; K562 cells, 10 uM, 30 min; active = over 0.2 and 3.5 SD of the protein, either way, in both replicates (recomputed)
[1] = compound: CC(C)(O)CC(=O)NCCn1ccc2ncnc(Nc3ccc(Oc4cccc(C(F)(F)F)c4)c(Cl)c3)c21
In short: (§1)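 Thermal stability values are relative to control samples and come from duplicates. They are expressed as log2 fold changes. For measurement, K562 cells (2×10^6 cells/mL) received 10 μM compound for 30 min, and aliquots were heated for 3 min over 48°C-58°C, pooled, and extracted at 4°C in PBS with 0.5% NP-40. Soluble protein, the supernatant after 21,000xg for 90 min, was quantified by TMTpro 16plex LC-MS/MS with equalised channel sums.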

[2] = compound: CCCCN(Cc1ccc(C(=O)NO)cc1)C(=O)Nc1ccccc1 [Nexturastat A]
In short: as §1

[3] = compound: CC1=CC=C(C=C1)SC2=C3C=C(SC3=CN=C2)C(=O)N
In short: as §1

[4] = compound: CCCS(=O)(=O)Nc1ccc(F)c(C(=O)c2c[nH]c3ncc(Cl)cc23)c1F
In short: as §1

[5] = compound: C1COCCN1CCN2C3=CC=CC=C3N=C2NC(=O)C4=CC(=CC=C4)[N+](=O)[O-] [IRAK-1-4 Inhibitor I]
In short: as §1

[6] = compound: CC(=O)c1cnc2ccc(-c3cc(Cl)c(O)c(Cl)c3)nc2c1N[C@H]1CC[C@H](CN(C)C)CC1
In short: as §1

[7] = compound: CC(C)(C)Cn1c(N)nc2ccc(-c3[nH]c(C(C)(C)C)nc3-c3ccc(F)cc3)nc21 [ralimetinib]
In short: as §1

[8] = compound: CC(C)C1=C2N=C(C=C(N2N=C1)NCC3=CC=CC=C3)NCCCCCCN
In short: as §1

[9] = compound: CC(C)C[C@@H](C=O)NC(=O)[C@H](CC(C)C)NC(=O)[C@H](CC(C)C)NC(=O)OCc1ccccc1
In short: as §1

[10] = compound: CC(C)N(C[C@H]1O[C@@H](n2cnc3c(N)ncnc32)[C@H](O)[C@@H]1O)[C@H]1C[C@@H](CCc2nc3cc(C(C)(C)C)ccc3[nH]2)C1 [pinometostat]
In short: as §1

[11] = compound: CC1=C(C(CC(=O)N1)C2=CC=C(C=C2)C(F)(F)F)C(=O)NC3=C(C=C4C(=C3)C=NN4)F
In short: as §1

[12] = compound: CC1=C(C2=C(C=C1)C(=O)C3=CC=CC=C3N2CCCN)C
In short: as §1

[13] = compound: CC1=C(C=C(C=C1)NC(=O)C2=CC(=CC=C2)C(C)(C)C#N)NC3=CC4=C(C=C3)N=CN(C4=O)C
In short: as §1

[14] = compound: CC1=C(C=C(C=C1)NC(=O)C2=CC(=CC=C2)N(C)C)NC(=O)C3=CC=C(C=C3)O
In short: as §1

[15] = compound: CC1=NC(=CC=C1)C2=C(N=C(N2)C(C)(C)C)C3=CC4=NC=CN=C4C=C3
In short: as §1

[16] = compound: CCCS(=O)(=O)Nc1ccc(F)c(C(=O)c2c[nH]c3ncc(-c4ccc(Cl)cc4)cc23)c1F [vemurafenib]
In short: as §1

[17] = compound: CCCc1cc(C)[nH]c(=O)c1CNC(=O)c1cc(-c2ccnc(N3CCN(C)CC3)c2)cc2c1cnn2C(C)C
In short: as §1

[18] = compound: CCN(CC)Cc1ccc2cc(COC(=O)Nc3ccc(C(=O)NO)cc3)ccc2c1 [givinostat]
In short: as §1

[19] = compound: C=CC(=O)N1CCC[C@@H](n2nc(-c3ccc(Oc4ccccc4)cc3)c3c(N)ncnc32)C1 [ibrutinib]
In short: as §1

[20] = compound: CCN(CCCOc1ccc2c(Nc3cc(CC(=O)Nc4cccc(F)c4)[nH]n3)ncnc2c1)CCOP(=O)(O)O [barasertib]
In short: as §1

Measured: log2 fold change

ODF2 (UniProt Q5BJF6)
inactive: [1] 0.005 | [2] 0.408

NUDT14 (UniProt O95848)
inactive: [3] 0.035 | [4] 0.027

NUDT18 (UniProt Q6ZVK8)
inactive: [5] 0.101 | [6] -0.134 | [7] 0.031 | [1] -0.192 | [8] 0.111 | [9] 0.013 | [10] 0.134 | [11] 0.107 | [12] 0 | [13] 0.012 | [14] 0.011 | [3] -0.134 | [15] -0.028 | [2] -0.005 | [16] -0.007 | [4] -0.052 | [17] -0.135 | [18] -0.005

OPA3 isoform 2 (UniProt Q9H6K4)
inactive: [6] 0.102 | [7] 0.057 | [8] -0.083 | [9] 0.019 | [14] -0.052 | [16] -0.132 | [17] -0.066 | [18] -0.1

NUDT6 (UniProt P53370)
inactive: [5] -0.143 | [7] 0.183 | [1] -0.106 | [8] -0.033 | [9] 0.035 | [10] 0.071 | [12] 0.283 | [14] 0.049 | [3] 0.064 | [15] 0.075 | [2] -0.119 | [16] 0.002 | [4] -0.037 | [17] -0.092 | [18] -0.027

NUDT22 (UniProt Q9BRQ3)
inactive: [19] -0.2 | [6] -0.08 | [16] 0.008 | [17] -0.128 | [20] 0.322

OSBPL2 (UniProt Q9H1P3)
inactive: [3] -0.203 | [4] 0 | [17] -0.264

OAF (UniProt Q86UD1)
inactive: [7] -0.041 | [8] 0.009 | [9] -0.013 | [13] -0.005 | [14] -0.119 | [17] -0.346 | [18] -0.071

OSBPL11 (UniProt Q9BXB4)
inactive: [8] 0.13 | [18] 0.013

OXR1 isoform 2 (UniProt Q8N573)
inactive: [5] -0.044 | [6] -0.123 | [7] -0.088 | [1] -0.118 | [9] 0.119 | [10] 0.066 | [12] 0.031 | [14] -0.007 | [3] 0.008 | [15] -0.071 | [2] 0 | [16] 0.126 | [4] 0.027

NUDT8 (UniProt Q8WV74)
inactive: [5] 0.054 | [19] -0.047 | [7] -0.049 | [8] -0.034 | [9] 0.023 | [10] -0.084 | [11] -0.005 | [12] 0.037 | [13] -0.17 | [14] 0 | [3] 0.086 | [15] 0.118 | [16] -0.094 | [4] 0.003 | [17] -0.14 | [18] -0.019 | [20] 0.079

ORMDL1 (UniProt Q9P0S3)
inactive: [5] -0.19 | [1] -0.122 | [8] -0.137 | [10] 0.099 | [12] 0.106 | [13] 0.036 | [15] -0.127 | [2] -0.112 | [17] 0.06 | [18] 0.062

OPRPN (UniProt Q99935)
inactive: [17] 0.301

OSBPL6 isoform 5 (UniProt Q9BZF3)
inactive: [5] -0.578 | [6] -0.466 | [7] 0.313 | [1] 0 | [8] 0.545 | [9] -0.013 | [10] 0.43 | [11] -0.231 | [13] 0.025 | [14] -0.01 | [3] -0.481 | [15] -0.334 | [2] 0.314 | [4] -0.166 | [17] 0.362 | [18] -0.114

NXF1 (UniProt Q9UBU9)
inactive: [5] -0.344 | [6] -0.069 | [7] 0.207 | [9] 0.142 | [10] 0.184 | [11] 0.325 | [12] -0.052 | [14] 0.033 | [3] -0.082 | [15] -0.259 | [4] -0.265

ORC6 (UniProt Q9Y5N6)
inactive: [5] -0.039 | [7] -0.023 | [1] -0.079 | [9] 0.063 | [10] -0.047 | [11] 0.039 | [13] -0.013 | [14] -0.068 | [3] -0.138 | [15] -0.043 | [2] -0.124 | [4] 0.099

OSGEPL1 (UniProt Q9H4B0)
inactive: [5] -0.045 | [6] 0.191 | [8] -0.074 | [10] 0.043 | [13] -0.21 | [3] -0.133 | [15] 0.071 | [16] 0.113 | [4] -0.06 | [18] -0.083

P4HB (UniProt H7BZ94)
inactive: [13] -0.074

OAS3 (UniProt Q9Y6K5)
inactive: [5] 0.08 | [19] 0.396 | [7] -0.35 | [9] -0.503 | [10] -0.072 | [13] 0.124 | [14] -0.282 | [15] -0.272 | [20] -0.061

PABPC1 (UniProt H0YAR2)
inactive: [5] 0.128 | [7] -0.188 | [9] 0.121 | [10] 0.098 | [13] 0.075 | [14] -0.179 | [15] -0.138 | [17] -0.059

NUDT17 (UniProt P0C025)
inactive: [19] 0.462 | [6] 0.02 | [7] -0.075 | [1] 0.265 | [8] 0.009 | [9] 0.02 | [11] -0.05 | [12] 0.064 | [13] 0.325 | [14] -0.233 | [2] 0.378 | [16] 0.116 | [17] -0.016 | [18] -0.014 | [20] 0.114

ODF2L isoform 4 (UniProt Q9ULJ1)
inactive: [5] -0.126 | [19] -0.006 | [10] -0.082 | [11] 0.01 | [15] 0.064 | [16] -0.02 | [17] 0.123 | [20] -0.065

NVL (UniProt O15381)
inactive: [19] 0.05 | [7] 0.058 | [9] 0.008 | [14] 0.001 | [17] 0.028 | [20] 0.024

ORC3 (UniProt Q9UBD5)
inactive: [6] -0.031

2 records drawn at random from the list so far:
OAS3 (UniProt Q9Y6K5)
inactive: [5] 0.08 | [19] 0.396 | [7] -0.35 | [9] -0.503 | [10] -0.072 | [13] 0.124 | [14] -0.282 | [15] -0.272 | [20] -0.061

OAF (UniProt Q86UD1)
inactive: [7] -0.041 | [8] 0.009 | [9] -0.013 | [13] -0.005 | [14] -0.119 | [17] -0.346 | [18] -0.071
